According to publication PMC12718634:
Results are given in words; binding and its absence hold for the method and conditions named. Binding seen in cells or lysates may run through a third protein. A yes stands for co-enrichment or nearness to the bait. Other partners may have been found.

Sequences of proteins named here, by UniProt entry; tags and fusion partners are left off.
UniProt P49023: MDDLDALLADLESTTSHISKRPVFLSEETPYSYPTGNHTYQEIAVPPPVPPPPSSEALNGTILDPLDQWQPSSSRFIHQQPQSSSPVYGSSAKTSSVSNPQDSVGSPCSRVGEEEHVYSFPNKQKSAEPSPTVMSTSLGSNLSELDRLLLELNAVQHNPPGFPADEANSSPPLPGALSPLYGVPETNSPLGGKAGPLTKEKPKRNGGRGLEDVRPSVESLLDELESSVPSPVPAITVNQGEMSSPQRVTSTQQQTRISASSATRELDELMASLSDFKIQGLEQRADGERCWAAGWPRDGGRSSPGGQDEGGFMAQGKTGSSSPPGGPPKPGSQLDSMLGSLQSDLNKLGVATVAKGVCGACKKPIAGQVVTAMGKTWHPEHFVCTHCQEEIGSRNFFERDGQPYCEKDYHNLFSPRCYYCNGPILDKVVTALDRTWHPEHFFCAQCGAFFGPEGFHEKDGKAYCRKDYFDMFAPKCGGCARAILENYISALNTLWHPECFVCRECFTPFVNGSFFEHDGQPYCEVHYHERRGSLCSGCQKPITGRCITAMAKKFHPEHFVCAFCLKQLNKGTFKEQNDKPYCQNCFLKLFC
UniProt P26039: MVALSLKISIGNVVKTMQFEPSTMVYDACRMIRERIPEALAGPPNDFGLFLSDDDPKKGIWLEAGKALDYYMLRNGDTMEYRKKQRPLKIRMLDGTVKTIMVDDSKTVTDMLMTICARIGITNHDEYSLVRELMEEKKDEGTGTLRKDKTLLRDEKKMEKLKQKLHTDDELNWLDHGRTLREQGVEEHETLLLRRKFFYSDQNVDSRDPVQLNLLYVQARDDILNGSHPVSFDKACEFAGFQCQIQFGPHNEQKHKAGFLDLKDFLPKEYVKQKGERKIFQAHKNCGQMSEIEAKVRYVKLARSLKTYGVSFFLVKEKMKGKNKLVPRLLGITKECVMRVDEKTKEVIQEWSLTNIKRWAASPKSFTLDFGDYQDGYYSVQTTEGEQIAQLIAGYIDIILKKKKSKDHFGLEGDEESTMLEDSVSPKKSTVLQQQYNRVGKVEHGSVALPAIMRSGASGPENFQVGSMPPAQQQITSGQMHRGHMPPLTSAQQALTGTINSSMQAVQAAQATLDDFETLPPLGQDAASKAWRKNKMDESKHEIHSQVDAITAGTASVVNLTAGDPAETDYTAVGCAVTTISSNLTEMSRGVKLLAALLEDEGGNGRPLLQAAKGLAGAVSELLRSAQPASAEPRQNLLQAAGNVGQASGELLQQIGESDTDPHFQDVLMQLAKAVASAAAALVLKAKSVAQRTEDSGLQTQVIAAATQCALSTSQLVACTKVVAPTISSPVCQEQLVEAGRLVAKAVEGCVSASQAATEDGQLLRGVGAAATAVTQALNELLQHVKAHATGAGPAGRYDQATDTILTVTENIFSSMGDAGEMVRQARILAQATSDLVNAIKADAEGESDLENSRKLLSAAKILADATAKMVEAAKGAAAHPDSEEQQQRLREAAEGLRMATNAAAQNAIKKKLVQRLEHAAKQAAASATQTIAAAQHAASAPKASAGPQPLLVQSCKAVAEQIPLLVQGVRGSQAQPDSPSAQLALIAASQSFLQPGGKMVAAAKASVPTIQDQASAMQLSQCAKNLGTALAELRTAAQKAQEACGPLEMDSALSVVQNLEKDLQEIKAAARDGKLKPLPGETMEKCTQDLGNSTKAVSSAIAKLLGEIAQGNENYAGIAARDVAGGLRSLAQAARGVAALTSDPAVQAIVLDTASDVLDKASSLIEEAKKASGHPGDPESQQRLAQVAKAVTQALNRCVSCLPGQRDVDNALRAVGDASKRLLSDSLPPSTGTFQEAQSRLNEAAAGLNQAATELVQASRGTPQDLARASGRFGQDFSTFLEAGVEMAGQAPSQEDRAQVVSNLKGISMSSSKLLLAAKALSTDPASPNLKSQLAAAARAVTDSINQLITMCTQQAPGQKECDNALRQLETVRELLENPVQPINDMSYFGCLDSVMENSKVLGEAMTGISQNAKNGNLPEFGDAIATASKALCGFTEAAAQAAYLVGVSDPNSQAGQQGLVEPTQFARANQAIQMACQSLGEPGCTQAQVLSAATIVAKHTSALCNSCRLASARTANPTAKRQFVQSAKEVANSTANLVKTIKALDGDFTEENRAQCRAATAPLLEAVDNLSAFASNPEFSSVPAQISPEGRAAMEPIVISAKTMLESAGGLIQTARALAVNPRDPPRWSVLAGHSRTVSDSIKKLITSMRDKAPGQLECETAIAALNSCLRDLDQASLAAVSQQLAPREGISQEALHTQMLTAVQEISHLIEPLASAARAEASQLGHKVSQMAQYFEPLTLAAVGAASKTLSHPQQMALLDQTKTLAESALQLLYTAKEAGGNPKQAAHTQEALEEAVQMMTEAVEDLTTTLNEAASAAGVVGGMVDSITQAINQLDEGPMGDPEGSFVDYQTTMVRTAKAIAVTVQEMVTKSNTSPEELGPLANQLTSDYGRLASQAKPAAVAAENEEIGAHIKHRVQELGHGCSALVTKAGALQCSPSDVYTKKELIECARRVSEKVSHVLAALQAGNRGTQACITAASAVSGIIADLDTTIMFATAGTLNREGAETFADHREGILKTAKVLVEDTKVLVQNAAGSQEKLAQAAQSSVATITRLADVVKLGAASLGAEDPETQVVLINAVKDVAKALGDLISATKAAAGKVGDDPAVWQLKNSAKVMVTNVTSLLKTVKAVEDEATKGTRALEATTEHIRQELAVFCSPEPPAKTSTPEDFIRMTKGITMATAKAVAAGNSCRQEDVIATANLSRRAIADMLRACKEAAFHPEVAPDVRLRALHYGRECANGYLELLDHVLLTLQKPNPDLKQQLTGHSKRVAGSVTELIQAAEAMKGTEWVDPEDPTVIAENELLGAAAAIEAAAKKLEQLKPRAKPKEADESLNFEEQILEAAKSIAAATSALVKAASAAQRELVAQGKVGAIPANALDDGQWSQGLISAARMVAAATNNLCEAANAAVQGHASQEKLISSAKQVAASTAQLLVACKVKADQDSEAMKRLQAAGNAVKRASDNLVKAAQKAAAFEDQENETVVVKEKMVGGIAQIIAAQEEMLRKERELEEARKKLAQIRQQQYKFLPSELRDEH
UniProt Q71LX4: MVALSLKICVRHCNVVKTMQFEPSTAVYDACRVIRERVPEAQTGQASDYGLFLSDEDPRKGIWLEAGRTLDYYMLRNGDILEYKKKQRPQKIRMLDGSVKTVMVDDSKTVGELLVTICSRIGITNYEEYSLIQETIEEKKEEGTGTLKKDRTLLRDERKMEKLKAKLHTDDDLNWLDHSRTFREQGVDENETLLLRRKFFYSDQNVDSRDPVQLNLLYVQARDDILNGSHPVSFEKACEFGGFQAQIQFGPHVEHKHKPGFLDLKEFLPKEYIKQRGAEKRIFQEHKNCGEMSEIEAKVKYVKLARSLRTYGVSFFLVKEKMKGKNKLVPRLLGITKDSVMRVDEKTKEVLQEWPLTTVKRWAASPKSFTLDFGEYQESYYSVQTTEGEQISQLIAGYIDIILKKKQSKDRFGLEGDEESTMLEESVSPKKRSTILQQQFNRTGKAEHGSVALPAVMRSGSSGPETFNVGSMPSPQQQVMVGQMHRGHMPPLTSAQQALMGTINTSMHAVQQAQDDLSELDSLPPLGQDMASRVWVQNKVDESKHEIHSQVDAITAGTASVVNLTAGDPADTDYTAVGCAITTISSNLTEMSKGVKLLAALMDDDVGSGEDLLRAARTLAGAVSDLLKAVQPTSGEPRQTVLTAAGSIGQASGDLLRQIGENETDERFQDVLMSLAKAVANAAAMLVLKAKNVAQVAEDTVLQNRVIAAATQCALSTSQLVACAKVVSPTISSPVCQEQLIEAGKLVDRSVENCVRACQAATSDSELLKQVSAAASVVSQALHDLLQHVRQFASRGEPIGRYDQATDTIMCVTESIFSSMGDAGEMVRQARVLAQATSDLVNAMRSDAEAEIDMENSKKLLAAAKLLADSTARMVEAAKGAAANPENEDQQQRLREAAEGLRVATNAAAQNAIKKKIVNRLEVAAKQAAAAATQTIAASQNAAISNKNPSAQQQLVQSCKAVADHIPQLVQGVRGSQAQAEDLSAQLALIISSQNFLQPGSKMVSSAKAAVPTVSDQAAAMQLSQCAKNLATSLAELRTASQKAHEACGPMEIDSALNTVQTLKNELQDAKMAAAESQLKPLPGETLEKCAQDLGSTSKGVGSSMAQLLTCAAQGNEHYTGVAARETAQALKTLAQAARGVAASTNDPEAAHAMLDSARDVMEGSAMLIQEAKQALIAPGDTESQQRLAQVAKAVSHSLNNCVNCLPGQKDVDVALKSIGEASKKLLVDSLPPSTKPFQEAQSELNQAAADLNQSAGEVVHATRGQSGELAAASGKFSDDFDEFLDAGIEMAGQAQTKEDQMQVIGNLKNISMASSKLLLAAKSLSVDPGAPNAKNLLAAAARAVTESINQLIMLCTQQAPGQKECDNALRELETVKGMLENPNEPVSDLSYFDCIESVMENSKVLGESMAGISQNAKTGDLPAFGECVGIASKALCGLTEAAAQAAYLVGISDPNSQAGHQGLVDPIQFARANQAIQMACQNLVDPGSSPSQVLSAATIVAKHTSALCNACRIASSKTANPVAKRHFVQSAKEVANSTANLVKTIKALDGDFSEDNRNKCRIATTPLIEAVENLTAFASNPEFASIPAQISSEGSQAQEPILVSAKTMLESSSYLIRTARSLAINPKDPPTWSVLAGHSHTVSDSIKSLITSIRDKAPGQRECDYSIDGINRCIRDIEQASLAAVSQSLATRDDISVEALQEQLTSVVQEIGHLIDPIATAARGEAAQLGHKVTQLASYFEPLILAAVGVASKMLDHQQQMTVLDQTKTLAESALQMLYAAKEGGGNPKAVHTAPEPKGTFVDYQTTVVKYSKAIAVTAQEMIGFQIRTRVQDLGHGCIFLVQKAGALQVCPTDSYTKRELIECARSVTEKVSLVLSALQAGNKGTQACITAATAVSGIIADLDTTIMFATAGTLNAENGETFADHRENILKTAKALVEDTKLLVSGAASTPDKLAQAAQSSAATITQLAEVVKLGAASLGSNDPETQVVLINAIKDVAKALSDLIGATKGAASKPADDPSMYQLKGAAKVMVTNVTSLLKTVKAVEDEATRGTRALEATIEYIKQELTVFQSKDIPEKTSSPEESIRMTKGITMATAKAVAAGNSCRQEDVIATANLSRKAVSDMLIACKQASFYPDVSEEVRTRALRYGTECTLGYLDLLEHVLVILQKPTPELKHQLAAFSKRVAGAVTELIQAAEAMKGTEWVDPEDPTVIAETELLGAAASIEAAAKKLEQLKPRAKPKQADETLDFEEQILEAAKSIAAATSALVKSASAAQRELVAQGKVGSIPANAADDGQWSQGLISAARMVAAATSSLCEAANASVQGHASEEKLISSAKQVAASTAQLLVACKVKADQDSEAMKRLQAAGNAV
UniProt Q8CIN4: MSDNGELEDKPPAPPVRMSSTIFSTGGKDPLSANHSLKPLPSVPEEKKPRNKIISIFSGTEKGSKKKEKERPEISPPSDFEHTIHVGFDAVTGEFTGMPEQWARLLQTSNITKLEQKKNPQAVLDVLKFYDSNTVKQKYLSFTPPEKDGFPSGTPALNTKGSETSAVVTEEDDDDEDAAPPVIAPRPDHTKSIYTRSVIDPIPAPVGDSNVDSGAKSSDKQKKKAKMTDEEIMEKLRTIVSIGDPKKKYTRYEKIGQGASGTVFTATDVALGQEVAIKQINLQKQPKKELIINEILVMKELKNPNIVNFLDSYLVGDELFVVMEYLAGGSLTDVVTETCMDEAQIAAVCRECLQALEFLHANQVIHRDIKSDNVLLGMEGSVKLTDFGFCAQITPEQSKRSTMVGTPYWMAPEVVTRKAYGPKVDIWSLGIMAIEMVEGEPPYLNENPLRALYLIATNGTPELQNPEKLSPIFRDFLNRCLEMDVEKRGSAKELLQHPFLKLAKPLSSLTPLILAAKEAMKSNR

Biological target: GFP-BirA*-Paxillin (UniProt P49023)
Assay: proximity labelling; Bio-ID: GFP-BirA*-Paxillin as bait, stably expressed in B16-F1 control and Cyri-b KO cells on laminin; biotin or DMSO for 16 h; biotinylated proteins captured on NeutrAvidin agarose, on-bead digestion, mass spectrometry (label-free quantification)

| Molecule | binding |
| --- | --- |
| talin-1 (from UniProt P26039 1-2541) | binds |
| talin-2 (from UniProt Q71LX4 1-2375) | binds |
| PAK2 (from UniProt Q8CIN4 1-524) | binds |
| ERC1 (protein, UniProt Q99MI1 1-1120) MYGSARSVGKVEPSSQSPGRSPRLPRSPRLGHRRTNSTGGSSGNSVGGGSGKTLSMENIQSLNAAYATSGPMYLSDHENVGAETPKSTMTLGRSGGRLPYGVRMTAMGSSPNIASSGVASDTIAFGEHHLPPVSMASTVPHSLRQARDNTIMDLQTQLKEVLRENDLLRKDVEVKESKLSSSMNSIKTFWSPELKKERALRKDEASKITIWKEQYRVVQEENQHMQMTIQALQDELRIQRDLNQLFQQDSSSRTGEPCVAELTEENFQRLHAEHERQAKELFLLRKTLEEMELRIETQKQTLNARDESIKKLLEMLQSKGLSAKATEEDHERTRRLAEAEMHVHHLESLLEQKEKENNMLREEMHRRFENAPDSAKTKALQTVIEMKDSKISSMERGLRDLEEEIQMLKSNGALSSEEREEEMKQMEVYRSHSKFMKNKVEQLKEELSSKDAQGEELKKRAAGLQSEIGQVKQELSRKDTELLALQTKLETLTNQFSDSKQHIEVLKESLTAKEQRAAILQTEVDALRLRLEEKETMLNKKTKQIQDMAEEKGTQAGEIHDLKDMLDVKERKVNVLQKKIENLQEQLRDKEKQMSSLKERVKSLQADTTNTDTALTTLEEALADKERTIERLKEQRDRDEREKQEEIDTYKKDLKDLREKVSLLQGDLSEKEASLLDIKEHASSLASSGLKKDSRLKTLEIALEQKKEECLKMESQLKKAHEATLEARASPEMSDRIQQLEREISRYKDESSKAQTEVDRLLEILKEVENEKNDKDKKIAELESLTSRQVKDQNKKVANLKHKEQVEKKKSAQMLEEARRREDSLSDSSQQLQDSLRKKDDRIEELEEALRESVQITAEREMVLAQEESARTNAEKQVEELLMAMEKVKQELESMKAKLSSTQQSLAEKETHLTNLRAERRKHLEEVLEMKQEALLAAISEKDANIALLELSSSKKKTQEEVAALKREKDRLVQQLKQQTQNRMKLMADNYEDDHFRSSRSNQTNHKPSPDQIIQPLLELDQNRSKLKLYIGHLTALCHDRDPLILRGLTPPASYNADGEQAAWENELQQMTQEQLQNELEKVEGDNAELQEFANTILQQIADHCPDILEQVVNALEESS | binds |
| pragmin (protein, UniProt Q571I4 1-1373) MSACSDFVEHIWKPGSCKNCFCLRSDHQPTAGHPKARANSLPAGTRLPARPENCRLDDEGVNGLAYSKPTIAVKPTMMTSETSDLWTEASLSAEVPKVNWRRTPGKLLLPKQEDEPIVYLGSFRGLQKPASPLACTDGNSRCPPAYTMVGLHNLEARVDRNTAFQPVSFQEEKAGREELPSAHESFRQKLAAFAGMTSSCPKGPRPCTSPQPLRESLPSEDDSDQRCSPSGDSEGGEYCSILDCCPESKDAVHSTEGSGRRGGDCSPTCREQGPRTRPTEEEKQGLSFPRECCGQGSTANPPRLGPKKPSLNSEAASSSDGLSCGSSRSGASSPFAPHLENDYCSLVKEPASGKQQDLSGHFLTSGKCVGQAAELQPASLLRDPVQPEPIYAESAKRKKAAPGPPRPEPKKEQVPAGHSQGQVWTGDTWIQKTPPSWSQDREGANPAPQVATTITVIAAHPEEDHRTIYLSSPDSAVGVQWPRGPSNQDLQAGEEEPLVAQGLTSRESHPHNVTENTAKEKPAIPPKLSKSSPGGSPVSPAPPLTDHSDGNTGGSSVGPQLLSRVPANLTSSCHTNGVATAGDSAKCPPPATSSSVLDQRRPRYQTGAWSRQCRIEEEEEVGQELSQSWGRELENGTADHSNSSTWHRLHPIDGTSGQNSKTNSGMSKSASFAFEFPKDRGRLEAFSPPPPPPKSRHLLKMNKSSSDLEKVSQSSAESLSPSFRGAHVSFTTGSTDSLASDSRPCSDGGPSYEPTHSPTISGKKLFAPVPFPSGSTEDVSPGGGPAQPPPLPQKKIVSRAASSPDGFFWTQGSPKPRTASPKLNLSHSETNVCAHDEPPFNCSLNSGNRSHHVFSSSEPLGKAFKGNAPWAPALGLANSKGGCGSPSLQCRAATSTSSSQLSVSSQASSSSTQLQLHSLLSSISSKEGTYAKLGGLYTQSLARLVTKCEDLFMGGQKKELRFNENYWSLFKLTCNKPCCDSGDAIYYCATCSEDPGSIYAVKICKTPEPKSASYCSPSVPVHFNIQQDCGHFVASVPSSMLASPDTSSKDTAPAVSPQPPAQEQDCVVVITREVPHQTASDFVRDSMASHRAEPEVYERRVCFLLLQLCNGLEHLKEHGIIHRDLCLENLLLAHCNPQSSPGPSATPTVPTTTSRCPSAAPAATTACQGGPGEKQLPRLIISNFLKAKQKPGGTTNLQQKKSQARLAPEIVSASQYRKFDEFQTGILIYELLHQPNPFEVRAQLRERDYRREDLPPLPTLSLYSPGLQQLAHLLLEADPIKRIRIGEAKRVLQCLLWGPRRELVEQPCTSEEVLCNTLHNWIDMKRALMMMKFAEKAVDRRRGVELEDWLCCQYLASAEPGALLQSLKLLQLL | binds |
| tensin3 (protein, UniProt Q5SSZ5 1-1440) MEDSHELDLTYVTERIIAVSFPASCSEESYLHSLQEVTRMLKCKHGDNYLVLNLSEKRYDLTKLNPKIMDVGWPELHAPPLDKMCTICKAQESWLNNDPQHVVVIHCRGGKGRIGVVISSYMHFTNVSASADQALDRFAMKKFYDDKISALMEPSQKRYVQFLSGLLSGAMKMNTSPLFLHFVIMHGVPSFDTGGACRPFLKLYQAMQPVYTSGIYNVGSENPSRIRIAIEPAQLLKGDIMVKCYHKKFRSATRDVIFRLQFHTGAVQGYGLLFGKEELDSACKDDRFPDYGKIELVFSATPEKIQGSEHLYSDQGVTVDYNTADPLIRWDSYENMSADGEVLHTQGPVDGSLYAKVRKKSASDTGIPSSPQGMPATSSPDHGDHTLSVSSDSGHSTASARTDKTEERLTPGARRGLSPQEKAELDQLLSGFGLEDSASSHKDMTDMRSKYSGTRHVVPAQVHVNGDAALKDRETDILDDEMPHHDLHSVDSLGTLSSSEGPQSTHLGPFTCLKSSQNSLLSDGFGNGVAEDHNGVLSPDLGLGVDTLYDRERMCGGREQKPLQPLLRKPSAPTPVQAYGQSNYSTQTWVRQQQMVAAHQYSFASDGEARLGSRSTVDNTGLAQPPPHIPVTPNRGASSRVAVQRGISNGPNPPDTQQLCPGKALQPRFQDDRVTNGVHQEPNTGSSPGSPTLDIDQSIEQLNRLILELDPTFEPIPTHLNALGISAVCPDGVGSGLRCSGRLDSVDGPGRSPGRQGDDPIGGRLRKLSIGQYDNDAASQVTFSKCGWGKAGVDPAPSLGSFSSPEDIKETVITAYPSDLNMIDGRIPNSKESSMCLTPSFPVSPETPYVKTSPRYPPFSPPEPQLSSPASLHKGREPRGCPEIISHTVGMSESPVGPKPTMLRADMPATPNFQQVFASSCTVSSNGPGQRRESPPSAERQWVESSPKSTLTLLGNSHPSESPLGTHEFCSSGKDSPGLPCFQSSELQASFHSHELSMSEPQGALPPAGSQTFLGFNTVTTATSVLPPGEDAGTLLVNSHGTSPAPGTPLLTTGAADNGFLPHNFLTVSPGASSHHSPGLQNQNVSLPGQPPLPEKKRASEGDRSLGSVSPSSSGFSSPHSGSTMSIPFPNVLPDFCKPSEVASPLPDSPNDKLVIVKFVQDTSKFWYKADISREQAIAMLKDKAPGSFIVRDSHSFRGAYGLAMKVATPPPSVLHLNKKAGDLSNELVRHFLIECTPKGVRLKGCSNEPYFGSLTALVCQHSITPLALPCKLLIPERDPLEEIAENSPQTAANSAAELLKQGAACNVWYLNSVEMESLTGHQAVQKALSMTLVQEPPPVSTVVHFKVSAQGITLTDNQRKLFFRRHYPVSSVIFCALDPQDRKWIKDGPSSKVFGFVARKQGSATDNVCHLFAEHDPEQPASAIVNFVSKVMIGSPKKI | binds |
